Results deposited as PubChem BioAssay AID652272 (Drosophila RNAi Screening Center, 2013).
The deposit covers about 21,000 reagents; below is an unselected part of those that have a named target and a result. Over the whole deposit, 503 (2.4%) got an active call. 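Raw plate light values, not normalised; calls rest on replicate z-scores that were not deposited; hits include reporter decreases as well as increases.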 Entries without a mark were called inactive. Not stated in the record: the amount of reagent, the time to read-out.

Test: 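Genes whose knock-down decreases or increases Hedgehog reporter output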 (primary screen)
Cells: Drosophila clone 8 (Cl8) cells
Knock-down reagent: long dsRNA against Drosophila genes
Read-out: 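Plate reader light from a firefly reporter under a ptc promoter fragment that responds to Hedgehog, with Renilla light as transfection reference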
Scale: firefly Hh reporter signal: higher = more ptc reporter light; Renilla reference signal: higher = more Renilla control light
Hit rule: 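Called a hit if the two-replicate mean z-score lies below -2 or above +3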
Calls: active = hit: reporter lowered or raised; inactive = not a hit

UK114 [DRSC01973] — firefly Hh reporter signal, replicate 1: 1.01e5; firefly Hh reporter signal, replicate 2: 79219; Renilla reference signal, replicate 1: 2992; Renilla reference signal, replicate 2: 6602
CG12863 [DRSC06203] — firefly Hh reporter signal, replicate 1: 1.03e5; firefly Hh reporter signal, replicate 2: 54056; Renilla reference signal, replicate 1: 2540; Renilla reference signal, replicate 2: 4392
CG4627 [DRSC06873] — firefly Hh reporter signal, replicate 1: 80210; firefly Hh reporter signal, replicate 2: 63349; Renilla reference signal, replicate 1: 1963; Renilla reference signal, replicate 2: 4457
Sgs3 [DRSC11280] — firefly Hh reporter signal, replicate 1: 62455; firefly Hh reporter signal, replicate 2: 55152; firefly Hh reporter signal, replicate 3: 86966; Renilla reference signal, replicate 1: 4969; Renilla reference signal, replicate 2: 4781
hzg [DRSC10549] — firefly Hh reporter signal, replicate 1: 85271; Renilla reference signal, replicate 1: 710; Renilla reference signal, replicate 2: 2353
CG18585 [DRSC02678] — firefly Hh reporter signal, replicate 1: 80813; firefly Hh reporter signal, replicate 2: 1.06e5; Renilla reference signal, replicate 1: 3329; Renilla reference signal, replicate 2: 4534
CG32720 [DRSC17529] — firefly Hh reporter signal, replicate 1: 5.34e5; firefly Hh reporter signal, replicate 2: 2.08e5; Renilla reference signal, replicate 1: 29733; Renilla reference signal, replicate 2: 4426
CG30043 [DRSC06285] — firefly Hh reporter signal, replicate 1: 80992; firefly Hh reporter signal, replicate 2: 46896; Renilla reference signal, replicate 1: 2024; Renilla reference signal, replicate 2: 3495
Taf8 [DRSC20363] — firefly Hh reporter signal, replicate 1: 90247; firefly Hh reporter signal, replicate 2: 58061; Renilla reference signal, replicate 1: 5538; Renilla reference signal, replicate 2: 2134
CG31126 [DRSC14623] — firefly Hh reporter signal, replicate 1: 6.28e5; firefly Hh reporter signal, replicate 2: 1.21e5; Renilla reference signal, replicate 1: 34473; Renilla reference signal, replicate 2: 3515
CG34398 [DRSC01052] — firefly Hh reporter signal, replicate 1: 9.17e5; firefly Hh reporter signal, replicate 2: 5.06e5; Renilla reference signal, replicate 1: 45828; Renilla reference signal, replicate 2: 20482
CG34398 [DRSC02510] — firefly Hh reporter signal, replicate 1: 58002; firefly Hh reporter signal, replicate 2: 19545; Renilla reference signal, replicate 1: 1468; Renilla reference signal, replicate 2: 2903
CG34398 [DRSC02511] — firefly Hh reporter signal, replicate 1: 98818; firefly Hh reporter signal, replicate 2: 1.39e5; Renilla reference signal, replicate 1: 3048; Renilla reference signal, replicate 2: 4090
CG34398 [DRSC03228] — firefly Hh reporter signal, replicate 1: 73984; firefly Hh reporter signal, replicate 2: 46626; Renilla reference signal, replicate 1: 1328; Renilla reference signal, replicate 2: 4352

Copied from the list.
Result for Sgs3 [DRSC11280] in “Renilla reference signal, replicate 2”: 4781
CG34398 [DRSC03228], Renilla reference signal, replicate 1 = 1328
